From article PMC4132743 (Nucleic Acids Research, 2014)
For at least one entry, the source does not settle the construct or the ends of the probe. For part of these data: The comparison behind a weaker result is the experiment's own reference, which may not be listed here. At least one verdict was read from the data and is not stated in words by the source. Protein sequences can lack the tags named with them.

Key:
[1] = molecular target: T1, DnaT (wt, full length) (Escherichia coli K12) (UniProt P0A8J2); assay: EMSA; settings: 20-160 uM protein, 6 uM DNA; Buffer A: 20 mM Tris-HCl pH 7.5, 40 mM NaCl, 5% v/v glycerol, 20 C; FPA 200 nM 5'-FAM DNA, Hill fit; EMSA 30 min at 20 C, gels in 0.5x TBE at 4 C; recombinant protein; residues 1-179; protein details: His-MBP removed by TEV; single-stranded DNA
T1 sequence (looked up): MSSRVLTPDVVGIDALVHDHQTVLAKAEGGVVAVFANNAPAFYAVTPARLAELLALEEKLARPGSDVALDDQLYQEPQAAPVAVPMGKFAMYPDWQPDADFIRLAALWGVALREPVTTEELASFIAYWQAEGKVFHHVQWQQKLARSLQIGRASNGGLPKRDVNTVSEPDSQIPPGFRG

[2] = molecular target: T2, DnaT84-179 (Escherichia coli K12) (UniProt P0A8J2); assay: EMSA; settings: 20-160 uM protein, 6 uM DNA; Buffer A: 20 mM Tris-HCl pH 7.5, 40 mM NaCl, 5% v/v glycerol, 20 C; FPA 200 nM 5'-FAM DNA, Hill fit; EMSA 30 min at 20 C, gels in 0.5x TBE at 4 C; recombinant protein; residues 84-179; protein details: His-MBP removed by TEV; single-stranded DNA
T2 sequence (looked up): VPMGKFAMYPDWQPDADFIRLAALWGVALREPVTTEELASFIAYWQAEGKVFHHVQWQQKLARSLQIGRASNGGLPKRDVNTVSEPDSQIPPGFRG

[3] = molecular target: T1, DnaT (wt, full length) (Escherichia coli K12); assay: negative-stain EM; settings: short filaments about 30 nm; Buffer A: 20 mM Tris-HCl pH 7.5, 40 mM NaCl, 5% v/v glycerol, 20 C; FPA 200 nM 5'-FAM DNA, Hill fit; recombinant protein; residues 1-179; protein details: His-MBP removed by TEV; single-stranded DNA

Sequence | binding result [1] | binding result [2] | binding result [3]
TTTTTTTTTTTTTTTTTTTTTTTTTTTTTT [dT30] | binds | binds more weakly | 
TTTTTTTTTTTTTTTTTTTTTTTTTTTTTTTTTTTTTTTTTTTTTTTTTT [dT50] |  |  | binds
